# Source: PubChem BioAssay AID1671190 (National Center for Advancing Translational Sciences (NCATS), 2021)
# Sequences of proteins named here, by UniProt entry; tags and fusion partners are left off. A change or cut given only in a name is not applied to a line headed by its entry.
# UniProt P18054: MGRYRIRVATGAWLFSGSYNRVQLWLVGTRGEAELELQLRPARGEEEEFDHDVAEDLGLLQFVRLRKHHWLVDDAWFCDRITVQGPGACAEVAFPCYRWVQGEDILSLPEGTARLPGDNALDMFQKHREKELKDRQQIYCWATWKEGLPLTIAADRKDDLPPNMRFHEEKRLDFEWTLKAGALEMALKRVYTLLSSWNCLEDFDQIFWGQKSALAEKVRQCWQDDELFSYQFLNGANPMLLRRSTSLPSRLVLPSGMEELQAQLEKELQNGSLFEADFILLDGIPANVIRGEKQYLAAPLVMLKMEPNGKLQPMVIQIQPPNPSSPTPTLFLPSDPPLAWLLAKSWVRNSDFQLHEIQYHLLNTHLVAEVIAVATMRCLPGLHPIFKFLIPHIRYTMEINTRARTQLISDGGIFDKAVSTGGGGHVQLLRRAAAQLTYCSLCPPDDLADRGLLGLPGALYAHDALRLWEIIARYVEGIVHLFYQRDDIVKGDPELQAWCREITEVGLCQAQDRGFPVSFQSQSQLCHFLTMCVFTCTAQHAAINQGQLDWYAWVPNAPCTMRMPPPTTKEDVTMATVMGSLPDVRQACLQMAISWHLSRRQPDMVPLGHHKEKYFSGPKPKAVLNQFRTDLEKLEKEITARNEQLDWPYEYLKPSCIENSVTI
# The campaign covered roughly 580,000 compounds. About 6,100 (1.1%) were called active. Inconclusive means that the source gave no clear call. Such entries were picked first, then a sample of the others. The call rests on the fitted dose curve; in most records, active means well fitted inhibition curve with a large enough effect; inconclusive means small, poorly fitted or top-dose-only effect, or another doubt; inactive means no such curve, though single readings can be large or run the other way. Potencies beside an inconclusive call are fits to weak or partial responses and may not hold up.
# Target: Polyunsaturated fatty acid lipoxygenase ALOX12 (Homo sapiens) (UniProt P18054)
# Test: Primary qHTS assay for inhibitors of human arachidonate 12S-lipoxygenase (ALOX12): Round 2
# Conditions: purified 12hLO, xylenol orange hydroperoxide absorbance; activity change, negative = inhibition: at 108 µM (top of the series) unless noted
# Procedure, shortened: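 Purified human 12hLO (150 nM final) in 25 mM Hepes, 0.01% Triton X-100, pH 7.0 was preincubated 15 min at room temperature with compound. Then 40 uM arachidonic acid was added, 30 min. Hydroperoxide was read by Fe-XO absorbance ratio 573/405 nm.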
# On the % scale 0 is the no-effect control and ±100 the full control effect; potency means the concentration at half of the fitted maximal effect.
SMILES,Potency,"activity change, negative = inhibition"
Clc1cccc(-c2nc3ccc(Cl)cn3c2Cc2ccccc2)c1,inactive,–
CCOc1ccc(/C=C/c2nc(C#N)c(NCCCN(C)C)o2)cc1,"inconclusive: 5.62 µM [inhibitor, full curve, poor fit]",–
CC/C(=N/Nc1ccc(Cl)cc1)c1cnnc(SC)n1,"inconclusive: 3.16 µM [inhibitor, full curve, poor fit]",–
COc1ccc2nc(C)cc(Nc3ccc(N4CCOCC4)cc3)c2c1,"inconclusive: 63.1 µM [inhibitor, partial curve, poor fit]",–
Cc1ccc(NC(=O)Cn2c(C)cc3nc4n(c(=O)c32)CCC4)cc1Cl,"inconclusive: 39.8 µM [inhibitor, partial curve, poor fit]",–
CC1=CC(=C(C#N)c2nc3ccccc3s2)C=C(C)N1c1ccc(F)cc1,"inconclusive: 89.1 µM [inhibitor, partial curve, poor fit]",–
COc1ccc(OC)c(N(CCN2C(=O)c3ccccc3C2=O)C(=O)CCl)c1,inactive,–
O=C(Nc1ccc(Br)cn1)c1cccc(-c2cc3ccccc3oc2=O)c1,inactive,–
COC(=O)Nc1ccc(S(=O)(=O)N2CCCC(C(=O)N3CCCCCC3)C2)cc1 (stereo not drawn),inactive,–
Cc1ccc(-c2[nH]c(-c3ccccc3)nc2SCC(=O)Nc2nccs2)cc1,inactive,–
CC(C)NC(=O)c1coc(COc2ccc3c(c2)C(c2cccc(F)c2)N(C(=O)C2CC2)CC3)n1 (stereo not drawn),"inconclusive: 39.8 µM [inhibitor, single point]",–
Cc1nn(C2CCS(=O)(=O)C2)c(Cl)c1/C=C/C(=O)OCC(=O)c1cc(C)n(-c2ccc(F)cc2)c1C (stereo not drawn),inactive,–
Cn1c(=O)n(C)c2cc(N3CCOCC3)c(NS(=O)(=O)c3ccc(Cl)cc3)cc21,inactive,–
Cc1ccc(OCc2n[nH]c(=S)n2-c2ccccc2)cc1,"inconclusive: 39.8 µM [inhibitor, partial curve, poor fit]",–
N#Cc1ccc(NC(=O)NCCNc2ccccn2)cc1,inactive,–
CCc1nnc(NC(=O)COC(=O)c2cc(OC)cc(OC)c2)s1,"inconclusive: 50.1 µM [inhibitor, partial curve, poor fit]",–
CCC(C(=O)NC1CCN(c2cn[nH]c(=O)c2)CC1)c1ccccc1 (stereo not drawn),inactive,–
CCCCOc1cccc(-c2cc(C(=O)NNC(=S)NCC)c3ccccc3n2)c1,inactive,–
COc1ccc(OC)c(NC(=O)CC2CC3CCC2C3)c1 (stereo not drawn),inactive,–
Cc1cc(=O)n(Cc2c(F)cccc2Cl)c2c1c(C)nn2C,"inconclusive: 158 µM [inhibitor, single point]",–
Cc1cc(C)cc(NS(=O)(=O)c2ccc(NS(=O)(=O)c3ccccc3[N+](=O)[O-])cc2)c1,–,inconclusive: -44.7% [inhibitor]
C/C(=N\NC(=O)COc1cc(C)cc(C)c1)c1cccc(NC(=O)C2CCC2)c1,"inconclusive: 0.224 µM [inhibitor, single point]",–
CN/N=C(\Cc1nc2ccccc2[nH]1)c1ccc([N+](=O)[O-])cc1,"inconclusive: 44.7 µM [inhibitor, partial curve, poor fit]",–

SMILES,Potency,"activity change, negative = inhibition"
Nc1nccnc1C(=O)NCc1ccc(N2CCc3ccccc3C2)nc1,"inconclusive: 79.4 µM [inhibitor, partial curve, poor fit]",–
O=C(Nc1cccc(-c2nn[nH]n2)c1)c1cccs1,"inconclusive: 63.1 µM [inhibitor, partial curve, poor fit]",–
O=C1c2ccccc2C(=O)N1CCCc1nc(-c2ccccn2)no1,inactive,–
O=C(Nc1ccccc1)c1cnc(-c2ccc(F)cc2)nc1-c1ccncc1,"inconclusive: 10 µM [inhibitor, full curve, poor fit]",–
Cc1ccc(-c2cc(C(=O)NCCO)c3ccccc3n2)cc1,inactive,–
CC[n+]1ccccc1/C=C/Nc1ccccc1,"inconclusive: 44.7 µM [inhibitor, partial curve, poor fit]",–
CCOc1cc(NC(=S)NCC(C)C)c(OCC)cc1NC(=O)c1cccs1,"inconclusive: 39.8 µM [inhibitor, partial curve, poor fit]",–
COc1ccc(-c2nc(CNC(=O)Nc3cccc(OC)c3)c(C)o2)cc1,"inconclusive: 31.6 µM [inhibitor, partial curve, poor fit]",–
Cc1noc(C)c1-c1ccc2ncnc(NCc3cccnc3)c2c1,"inconclusive: 6.31 µM [inhibitor, full curve, poor fit]",–
CCOc1ccc(NC(=O)CN2CCN(Cc3c(F)cccc3F)CC2)cc1,"inconclusive: 251 µM [inhibitor, partial curve, poor fit]",–
Fc1ccc(-n2c(Cc3cccs3)n[nH]c2=S)cc1Cl,inactive,–
CCOC(=O)c1cnc2c(C)c(Cl)ccc2c1NCCCN1CCOCC1,active: 44.7 µM,–
COc1cc(NS(=O)(=O)c2ccc3c(c2)oc(=O)n3C)cc(OC)c1OC,inactive,–
Cc1cc(NC(=O)c2ccc(C#N)cc2)n(-c2ccccn2)n1,inactive,–
CCc1ccc2oc(C(=O)NCC(c3ccco3)N(C)C)cc(=O)c2c1 (stereo not drawn),"inconclusive: 50.1 µM [inhibitor, partial curve, poor fit]",–
O=C(COC(=O)c1ccccc1)NC1CCCCCC1,inactive,–
COc1cc2ccccc2cc1C(=O)N(CCN(C)C)c1nc2ccc(C)cc2s1,"inconclusive: 70.8 µM [inhibitor, partial curve, poor fit]",–
Cc1ccc(OCc2nc(C#N)c(NCc3cccnc3)o2)c(C)c1,inactive,–
Cc1cccc(Nc2nc3c(S(=O)(=O)c4ccc(Br)cc4)nnn3c3ccsc23)c1C,"inconclusive: 11.2 µM [inhibitor, full curve, poor fit]",–
CCN(CC)CC(=O)Nc1nc(-c2ccc(Cl)cc2)cs1,inactive,–
O=[N+]([O-])c1ccccc1/C=C/C=N/n1c(-c2ccccc2)n[nH]c1=S,"inconclusive: 35.5 µM [inhibitor, partial curve]",–
COc1ccc(-n2c(Cn3nnc4ccccc43)nnc2SCC(=O)O)cc1,inactive,–
COc1ccc(CCNC(=O)c2ccc(Cn3c(SCC(=O)NCCC(C)C)nc4cc5c(cc4c3=O)OCO5)cc2)cc1OC,"inconclusive: 89.1 µM [inhibitor, partial curve, poor fit]",–

SMILES,Potency,"activity change, negative = inhibition"
N#C/C(=C\c1ccc2ccccc2n1)c1nc2ccccc2s1,"inconclusive: 14.1 µM [inhibitor, full curve, poor fit]",–
COCCNC(=O)c1cc(-c2ccc(OC)cc2)nc2onc(C3CCNC3)c12 (stereo not drawn),"inconclusive: 28.2 µM [inhibitor, single point]",–
COc1ccc(NC(=O)CSc2nnc3ccc(-c4ccncc4)nn23)cc1,inactive,–
Cc1cc(C)c2nc(N(CCN(C)C)C(=O)/C=C/c3cccs3)sc2c1,"inconclusive: 50.1 µM [inhibitor, partial curve, poor fit]",–
O=C(NCCc1c[nH]c2ccccc12)C1CCN(Cc2ccc(Br)cc2)CC1,"inconclusive: 39.8 µM [inhibitor, partial curve, poor fit]",–
CNC(=O)c1ccc(CN2CCCC(Nc3ccc(F)cc3)C2)o1 (stereo not drawn),"inconclusive: 25.1 µM [inhibitor, full curve]",–
Cn1cnc2c1c(=O)n(CC(=O)NCc1cccc(Cl)c1)c(=O)n2C,inactive,–
O=C(Nc1ccccc1Cl)c1nc2ccccc2nc1N1CCCCC1,inactive,–
CCCc1nnc2c(=O)n(CC(=O)Nc3ccccc3C(=O)OCC)c3ccccc3n12,"inconclusive: 8.91 µM [inhibitor, full curve, poor fit]",–
Cc1ccccc1-n1c(C)nnc1SCC(=O)Nc1c(C#N)c(C)c(C)n1Cc1ccco1,inactive,–
COCCNC(=O)/C(C#N)=C/c1ccc(-c2ccc(S(=O)(=O)N3CCOCC3)cc2)o1,"inconclusive: 63.1 µM [inhibitor, partial curve, poor fit]",–
Cc1cccc(OCC(=O)OCC(=O)c2ccc3c(c2)OCO3)c1,"inconclusive: 4.47 µM [inhibitor, full curve, poor fit]",–
Clc1cccc(-n2ncc3c(NCCCN4CCOCC4)ncnc32)c1,"inconclusive: 50.1 µM [inhibitor, partial curve, poor fit]",–
O=C1[C@H]2CN(Cc3ccc(Br)cc3)C[C@H]2C(=O)N1CCc1ccccc1,"inconclusive: 56.2 µM [inhibitor, partial curve, poor fit]",–
COc1ccc(S(=O)(=O)N2CCN(Cc3cc4c(cc3Br)OCCO4)CC2)cc1,"inconclusive: 31.6 µM [inhibitor, partial curve]",–
COc1ccc(Cl)cc1NC(=O)[C@H]1C[C@H](C(C)C)N[C@]12C(=O)Nc1c(C)cc(Cl)cc12,"inconclusive: 141 µM [inhibitor, single point]",–
Cc1ccc(-c2nn[nH]n2)cc1Cl,"inconclusive: 39.8 µM [inhibitor, partial curve, poor fit]",–
CN1CCN(C(=S)Nc2ccc(S(N)(=O)=O)cc2)CC1,inactive,–
CCOC(=O)C1CCCN(CCC(C)c2ccccc2)C1 (stereo not drawn),"inconclusive: 1.12 µM [inhibitor, full curve, poor fit]",–
O=C(c1cc(-c2ccncc2)nc2ccccc12)N1CCN(c2ccccc2O)CC1,inactive,–
Cc1ccc(S(=O)(=O)NCCc2cccc3cccnc23)cc1C,"inconclusive: 39.8 µM [inhibitor, partial curve, poor fit]",–
CC(=O)c1c(C)n(-c2ccc(C)cc2)c2ccc(OC(=O)COc3ccccc3)cc12,"inconclusive: 39.8 µM [inhibitor, full curve, poor fit]",–

# Structures shown so far that have a furan ring, fused or not:
SMILES,Potency,"activity change, negative = inhibition"
CCc1ccc2oc(C(=O)NCC(c3ccco3)N(C)C)cc(=O)c2c1 (stereo not drawn),"inconclusive: 50.1 µM [inhibitor, partial curve, poor fit]",–
CNC(=O)c1ccc(CN2CCCC(Nc3ccc(F)cc3)C2)o1 (stereo not drawn),"inconclusive: 25.1 µM [inhibitor, full curve]",–
Cc1ccccc1-n1c(C)nnc1SCC(=O)Nc1c(C#N)c(C)c(C)n1Cc1ccco1,inactive,–
COCCNC(=O)/C(C#N)=C/c1ccc(-c2ccc(S(=O)(=O)N3CCOCC3)cc2)o1,"inconclusive: 63.1 µM [inhibitor, partial curve, poor fit]",–
